# Where “and” joins values, the source holds several entries; their conditions need not be identical. Equal values may be shown once. Where a name gives a salt, the structure may show the parent alone. ± gives the standard deviation of the averaged measurements. Some of the results follow. The data scatter; read single values as rough.
# Tested on: Salmonella enterica serovar Typhimurium ST313 D23580
# Test: normalized bacterial growth (OD600 20 h minus 0 h, interquartile-mean normalized) (fraction of plate interquartile mean); higher = more bacterial growth (less inhibition)
# Conditions: LPM (pH 5.8, low phosphate, low Mg2+), concentration: 10 µM, temperature: 37 °C
row,Structure (SMILES),normalized bacterial growth
1,COc1ccc2c(c1OC)C(=O)O[C@@H]2[C@H]1c2c(cc3c(c2OC)OCO3)CCN1C,0.99 and 0.972
2,COc1ccc2c(c1OC)C(=O)O[C@@H]2[C@H]1c2c(cc3c(c2OC)OCO3)CCN1C [Noscapine hydrchloride],0.842
3,O=C1C=C(O)C(=O)c2ccccc21,0.762
4,CCCCCCCCCCCCCCCC(=O)OC(CC(=O)O)C[N+](C)(C)C (racemic) [Palmitoyl-DL-Carnitine chloride],1.32
5,CC(C)(C)NCC(O)COc1cccc2c1CCC(=O)N2 (configuration not stated) [Carteolol hydrochloride],1.05
6,C=C[C@@](C)(O)CC[C@H]1C(=C)CC[C@H]2C(C)(C)CCC[C@]12C,0.893
7,C=C1c2c(Cl)ccc(O)c2C(=O)C2=C(O)[C@]3(O)C(=O)C(C(N)=O)=C(O)[C@@H](N(C)C)[C@@H]3[C@@H](O)[C@H]12.O=C(O)c1cc(S(=O)(=O)O)ccc1O,0.0259
8,C=C1c2c(Cl)ccc(O)c2C(=O)C2=C(O)[C@]3(O)C(=O)C(C(N)=O)=C(O)[C@@H](N(C)C)[C@@H]3[C@@H](O)[C@H]12.O=C(O)c1cc(S(=O)(=O)O)ccc1O [Meclocycline sulfosalicylate],0.0396
9,CC(C)C[C@H](NC(=O)[C@H](O)[C@H](N)Cc1ccccc1)C(=O)O [Epibestatin hydrochloride],1.09
10,C/C=C1\C(=O)C[C@H]2[C@@H]3CCC4=CC(=O)CC[C@]4(C)[C@H]3CC[C@]12C [(Z)-Guggulsterone],0.921
11,O=C(CCc1ccc(O)cc1)c1c(O)cc(O)cc1OC1OC(CO)C(O)C(O)C1O (configuration not stated),1.1
12,OC[C@H]1O[C@H](O[C@]2(CCl)O[C@H](CCl)[C@@H](O)[C@@H]2O)[C@H](O)[C@@H](O)[C@H]1Cl,1.07
13,O=C(O)[C@@H](O)[C@H](O)[C@H](O)[C@@H](O)C(=O)O,0.744
14,CN1CCc2c(cc(O)c(O)c2Cl)C(c2cccc(Cl)c2)C1 (configuration not stated),0.802
15,O=C(O)c1cc(=O)cc(C(=O)O)[nH]1 [Chelidamic acid],1.12
16,C/C1=C/CCC(C)(O)/C=C\C(C(C)C)C(OC(=O)c2ccc(O)cc2)C1 (configuration not stated),0.91
17,Nc1nc2ccc(OC(F)(F)F)cc2s1 [Riluzole hydrochloride],1.02
18,Nc1nc2ccc(OC(F)(F)F)cc2s1 [Riluzole],1.02
19,Oc1cc(O)c2c(c1)O[C@H](c1ccc(O)c(O)c1)[C@H](O)C2,0.928
20,COc1ccc(-c2cc(=O)c3c(O)c(OC)c(O[C@@H]4O[C@H](CO[C@@H]5O[C@@H](C)[C@H](O)[C@@H](O)[C@H]5O)[C@@H](O)[C@H](O)[C@H]4O)cc3o2)cc1,0.764
21,C(=C\c1ccccc1)/CN1CCN(C(c2ccccc2)c2ccccc2)CC1 [Cinnarizine],0.58
22,Cn1c(=O)[nH]c(=O)c2[nH]cnc21,0.742
23,CCCCCCCCCCCCCCC[C@H](O)[C@H](N)CO (racemic) [DL-erythro-Dihydrosphingosine],0.958
24,COc1ccc(-c2cc(=O)c3cc(OC)ccc3o2)cc1,1

# Part of the list above, tab-delimited.
row	Structure (SMILES)	normalized bacterial growth
4	CCCCCCCCCCCCCCCC(=O)OC(CC(=O)O)C[N+](C)(C)C (racemic) [Palmitoyl-DL-Carnitine chloride]	1.32
5	CC(C)(C)NCC(O)COc1cccc2c1CCC(=O)N2 (configuration not stated) [Carteolol hydrochloride]	1.05
6	C=C[C@@](C)(O)CC[C@H]1C(=C)CC[C@H]2C(C)(C)CCC[C@]12C	0.893
7	C=C1c2c(Cl)ccc(O)c2C(=O)C2=C(O)[C@]3(O)C(=O)C(C(N)=O)=C(O)[C@@H](N(C)C)[C@@H]3[C@@H](O)[C@H]12.O=C(O)c1cc(S(=O)(=O)O)ccc1O	0.0259
8	C=C1c2c(Cl)ccc(O)c2C(=O)C2=C(O)[C@]3(O)C(=O)C(C(N)=O)=C(O)[C@@H](N(C)C)[C@@H]3[C@@H](O)[C@H]12.O=C(O)c1cc(S(=O)(=O)O)ccc1O [Meclocycline sulfosalicylate]	0.0396
9	CC(C)C[C@H](NC(=O)[C@H](O)[C@H](N)Cc1ccccc1)C(=O)O [Epibestatin hydrochloride]	1.09
10	C/C=C1\C(=O)C[C@H]2[C@@H]3CCC4=CC(=O)CC[C@]4(C)[C@H]3CC[C@]12C [(Z)-Guggulsterone]	0.921
11	O=C(CCc1ccc(O)cc1)c1c(O)cc(O)cc1OC1OC(CO)C(O)C(O)C1O (configuration not stated)	1.1
12	OC[C@H]1O[C@H](O[C@]2(CCl)O[C@H](CCl)[C@@H](O)[C@@H]2O)[C@H](O)[C@@H](O)[C@H]1Cl	1.07
13	O=C(O)[C@@H](O)[C@H](O)[C@H](O)[C@@H](O)C(=O)O	0.744
14	CN1CCc2c(cc(O)c(O)c2Cl)C(c2cccc(Cl)c2)C1 (configuration not stated)	0.802
15	O=C(O)c1cc(=O)cc(C(=O)O)[nH]1 [Chelidamic acid]	1.12
16	C/C1=C/CCC(C)(O)/C=C\C(C(C)C)C(OC(=O)c2ccc(O)cc2)C1 (configuration not stated)	0.91
17	Nc1nc2ccc(OC(F)(F)F)cc2s1 [Riluzole hydrochloride]	1.02
18	Nc1nc2ccc(OC(F)(F)F)cc2s1 [Riluzole]	1.02
19	Oc1cc(O)c2c(c1)O[C@H](c1ccc(O)c(O)c1)[C@H](O)C2	0.928

# Carrying on:

row,Structure (SMILES),normalized bacterial growth
1,COc1cccc(-c2cc(=O)c3ccccc3o2)c1N,0.96
2,CC(=O)c1ccc2c(c1)N(CCCN(C)C)c1ccccc1S2,0.883
3,CN(C)CCOC(C)(c1ccccc1)c1ccccn1 (configuration not stated) [Doxylamine succinate],0.896
4,Oc1c(I)cc(Cl)c2cccnc12,0.0876
5,C=CC(C1=CC(=O)C(OC)=CC1=O)c1ccc(OC)cc1 (configuration not stated),0.738
6,C[C@H]1[C@H](C)CC[C@]2(CO)CC[C@]3(C)C(=CC[C@@H]4[C@@]5(C)CC[C@H](O)C(C)(C)[C@@H]5CC[C@]43C)[C@H]12,0.968 ± 0.097
7,CN(C(=O)C(Cl)Cl)c1ccc(OC(=O)c2ccco2)cc1,0.929
8,"Nc1ccn([C@H]2CC[C@@H](CO)O2)c(=O)n1 [""2',3'-dideoxycytidine""]",1.05
9,Oc1cc(O)c2c(c1)O[C@H](c1cc(O)c(O)c(O)c1)[C@H](O)C2,1.19 ± 0.017
10,C=CC(C)(O)CCC1C(=C)CC(OC(C)=O)C2C(C)(C)CCCC12C (configuration not stated),0.734
11,CN1CCN(CCCN2c3ccccc3Sc3ccc(C(F)(F)F)cc32)CC1 [Trifluoperazine dihydrochloride],1.35
12,COc1ccc(OC)c(C(O)CNC(=O)CN)c1 (configuration not stated),1.13
13,"COC(=O)C[C@H]1C(C)(C)C2(O)OC34CC2C(=O)[C@]1(C)C3CC[C@]1(C)C4=CC(=O)O[C@H]1c1ccoc1 (stereo partly drawn) [""8beta-HYDROXYCARAPIN, 3,8-HEMIACETAL""]",1.08
14,CNC[C@H](O)c1ccc(O)c(O)c1,1.13
15,CNC[C@H](O)c1ccc(O)c(O)c1 [(-)-Epinephrine bitartrate],0.884
16,CNC[C@H](O)c1ccc(O)c(O)c1 [()-Epinephrine hydrochloride],0.926
17,Cn1c(=O)c2nc(C3CCCC3)[nH]c2n(C)c1=O,0.987
18,Cc1c[nH]c2ccccc12,1.1
19,O=c1cc(-c2ccc(O)cc2)oc2ccc(O)cc12,1.02
20,CC(=O)NS(=O)(=O)c1ccc(NC(=O)c2ccccc2C(=O)O)cc1,0.856
21,CC[C@H](C)[C@H](N)C1=N[C@H](C(=O)N[C@@H](CC(C)C)C(=O)N[C@H](CCC(=O)O)C(=O)N[C@H](C(=O)N[C@H]2CCCCNC(=O)[C@H](CC(N)=O)NC(=O)[C@@H](CC(=O)O)NC(=O)[C@H](Cc3cnc[nH]3)NC(=O)[C@@H](Cc3ccccc3)NC(=O)[C@H]([C@@H](C)CC)NC(=O)[C@@H](CCCN)NC2=O)[C@@H](C)CC)CS1,1.42
22,CC[C@H](C)[C@H](N)C1=N[C@H](C(=O)N[C@@H](CC(C)C)C(=O)N[C@H](CCC(=O)O)C(=O)N[C@H](C(=O)N[C@H]2CCCCNC(=O)[C@H](CC(N)=O)NC(=O)[C@@H](CC(=O)O)NC(=O)[C@H](Cc3cnc[nH]3)NC(=O)[C@@H](Cc3ccccc3)NC(=O)[C@H]([C@@H](C)CC)NC(=O)[C@@H](CCCN)NC2=O)[C@@H](C)CC)CS1 [Bacitracin],1.46
23,CC(=O)C1=C(O)C=C2Oc3c(C(C)=O)c(O)c(C)c(O)c3[C@]2(C)C1=O,1.02
24,O=C(CCc1ccc(O)cc1)c1c(O)cc(O)cc1O,0.94

row,Structure (SMILES),normalized bacterial growth
1,CC1(C)C2CCC1(C)C(O)C2 (configuration not stated),1.01
2,Oc1c(Cl)cc(Cl)c(Cl)c1Cc1c(O)c(Cl)cc(Cl)c1Cl,0.135
3,Cc1c(N(C)C)c(=O)n(-c2ccccc2)n1C,0.85
4,CCCCC[C@H](O)/C=C/C1=C(CCCCCCC(=O)O)C(=O)CC1,0.446
5,"CCCc1c(-c2ccc(O)cc2)nn(-c2ccc(O)cc2)c1-c1ccc(O)cc1 [""1,3,5-tris(4-hydroxyphenyl)-4-propyl-1H-pyrazole""]",0.753
6,COc1ccc(/C=C/C(=O)Nc2ccccc2C(=O)O)cc1OC [Tranilast],1.29
7,CC(=O)N1CCCC1C(=O)O (configuration not stated),0.895
8,CCOC(=O)C1=C(COCCN)NC(C)=C(C(=O)OC)C1c1ccccc1Cl (configuration not stated),0.902
9,Oc1ccc(/C=C/c2cc(O)cc(O)c2)cc1,0.926
10,CCCCCCCCCCCCCCC(C(=O)O)C(O)(CC(=O)OC)C(=O)O (configuration not stated),1.79
11,COc1ccccc1N1CCN(CCCCN2C(=O)c3ccccc3C2=O)CC1 [NAN-190 hydrobromide],0.949
12,CN1[C@@H]2CC[C@H]1C[C@@H](OC(=O)c1c[nH]c3ccccc13)C2 [Tropisetron HCl],0.826
13,Cc1cccc(C)c1OCC(C)N (configuration not stated) [Mexiletene hydrochloride],1.07
14,NC[C@@H]1O[C@H](O[C@H]2[C@@H](O)[C@H](O[C@@H]3[C@@H](O)[C@H](N)C[C@H](N)[C@H]3O[C@H]3O[C@H](CO)[C@@H](O)[C@H](O)[C@H]3N)O[C@@H]2CO)[C@H](N)[C@@H](O)[C@@H]1O,0.91
15,NC[C@@H]1O[C@H](O[C@H]2[C@@H](O)[C@H](O[C@@H]3[C@@H](O)[C@H](N)C[C@H](N)[C@H]3O[C@H]3O[C@H](CO)[C@@H](O)[C@H](O)[C@H]3N)O[C@@H]2CO)[C@H](N)[C@@H](O)[C@@H]1O [Paromomycin sulfate],0.9432 ± 0.0075
16,COc1cc(C)c2c(c1C=O)Oc1c(c(C)c(O)c3c1C(O)OC3=O)OC2=O (configuration not stated),0.99
17,CC[C@]1(O)C[C@H]2CN(CCc3c([nH]c4ccccc34)[C@@](C(=O)OC)(c3cc4c(cc3OC)N(C=O)[C@H]3[C@@](O)(C(=O)OC)[C@H](OC(C)=O)[C@]5(CC)C=CCN6CC[C@]43[C@@H]65)C2)C1,0.748 and 0.788
18,CC[C@]1(O)C[C@H]2CN(CCc3c([nH]c4ccccc34)[C@@](C(=O)OC)(c3cc4c(cc3OC)N(C=O)[C@H]3[C@@](O)(C(=O)OC)[C@H](OC(C)=O)[C@]5(CC)C=CCN6CC[C@]43[C@@H]65)C2)C1 [Vincristine sulfate],0.922
19,COc1ccccc1OCC(O)CO (configuration not stated),0.876
20,Cc1cc(=O)[nH]c(=S)[nH]1,1.16
21,CC(=O)[C@H]1CC[C@H]2[C@@H]3C=CC4=CC(=O)CC[C@@]4(C)[C@@H]3CC[C@]12C [Dydrogesterone],0.813
22,NC(N)=NC(N)=Nc1cccc(Cl)c1 [1-(m-Chlorophenyl)-biguanide hydrochloride],1
23,C[C@H]1O[C@@H](O[C@H]2[C@@H](O)C[C@H](O[C@H]3[C@@H](O)C[C@H](O[C@H]4CC[C@@]5(C)[C@H](CC[C@@H]6[C@@H]5C[C@@H](O)[C@]5(C)[C@@H](C7=CC(=O)OC7)CC[C@]65O)C4)O[C@@H]3C)O[C@@H]2C)C[C@H](O)[C@@H]1O [Digoxin],0.711
24,C[C@H]1O[C@@H](O[C@H]2[C@@H](O)C[C@H](O[C@H]3[C@@H](O)C[C@H](O[C@H]4CC[C@@]5(C)[C@H](CC[C@@H]6[C@@H]5C[C@@H](O)[C@]5(C)[C@@H](C7=CC(=O)OC7)CC[C@]65O)C4)O[C@@H]3C)O[C@@H]2C)C[C@H](O)[C@@H]1O,0.648

# — the supplement of paper PMC10398353
